PubChem BioAssay AID504784, Drosophila RNAi Screening Center | 2011
Purpose: 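Genome-wide knock-down for genes giving too much or too little stored lipid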 (primary screen). Cell system: Drosophila Kc167 embryonic cells. Reagents: long dsRNA against Drosophila genes, about 250 ng dsRNA per well. Duration: 4 days. Conditions: cells fed 400 µM oleic acid bound to BSA. Detection: 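Cells imaged and segmented; ratio of lipid droplet area to nuclear area, log-transformed, then normalised as a B-score over the screen; higher means more stored lipid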. Reading the numbers: droplet/nuclear area B-score: higher = more stored lipid (overstorage).
In all, the deposit lists about 17,000 reagents; this is a random part of those that have a named target and a result. 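Each column is one replicate's B-score; the combined score over replicates was not deposited, so single values may mislead.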 Reagents against one gene are numbered here. A plus sign joins genes that one reagent is predicted to hit. Not all columns of the deposit are shown.

How did the screen score CG10725?
droplet/nuclear area B-score, replicate 1: 2.42

With lncRNA:bxd, how do the results read?
droplet/nuclear area B-score, replicate 1: -1.03

What is on record for RpS7?
droplet/nuclear area B-score, replicate 1: 1.81

What is on record for meng?
droplet/nuclear area B-score, replicate 1: 0.677

What is on record for nesd?
droplet/nuclear area B-score, replicate 1: 0.00863

With nop5, what was measured?
droplet/nuclear area B-score, replicate 1: 1.15

With Ctr1B + Poxm, what was measured?
droplet/nuclear area B-score, replicate 1: 11.2

With san, how do the results read?
droplet/nuclear area B-score, replicate 1: 0.705

What did the screen give for Obp8a?
droplet/nuclear area B-score, replicate 1: -1.27

With CG8142, what was measured?
droplet/nuclear area B-score, replicate 1: -1.32

With CG32719, what was measured?
droplet/nuclear area B-score, replicate 1: 0.673

With CG10973, what was measured?
droplet/nuclear area B-score, replicate 1: -0.657

For Brd, how do the results read?
droplet/nuclear area B-score, replicate 1: 0.49

What is on record for CG3386?
droplet/nuclear area B-score, replicate 1: 1.22

Entries listed so far whose gene name starts with C or c:
CG10725: droplet/nuclear area B-score, replicate 1 = 2.42
Ctr1B + Poxm: droplet/nuclear area B-score, replicate 1 = 11.2
CG8142: droplet/nuclear area B-score, replicate 1 = -1.32
CG32719: droplet/nuclear area B-score, replicate 1 = 0.673
CG10973: droplet/nuclear area B-score, replicate 1 = -0.657
CG3386: droplet/nuclear area B-score, replicate 1 = 1.22

The list goes on.
What did the screen give for Tsp #1?
droplet/nuclear area B-score, replicate 1: 0.945

How did the screen score Tsp #2?
droplet/nuclear area B-score, replicate 1: 0.178

With CG15841 (retired record) + Acp33A, how do the results read?
droplet/nuclear area B-score, replicate 1: 0.242

For Prp31, what was measured?
droplet/nuclear area B-score, replicate 1: 0.029

What is on record for CG32246?
droplet/nuclear area B-score, replicate 1: -0.135

What did the screen give for CG43338?
droplet/nuclear area B-score, replicate 1: 3.68

What is on record for CG8230?
droplet/nuclear area B-score, replicate 1: 0.873

How did the screen score Pi4KIIIalpha?
droplet/nuclear area B-score, replicate 1: 2.51

How did the screen score ASPP #1?
droplet/nuclear area B-score, replicate 1: 1.66

For ASPP #2, how do the results read?
droplet/nuclear area B-score, replicate 1: -1.21

With Hip1, how do the results read?
droplet/nuclear area B-score, replicate 1: 0.0535

With CG14020, what does the deposit list?
droplet/nuclear area B-score, replicate 1: 0.025

Which result is listed for SLO2 #1?
droplet/nuclear area B-score, replicate 1: 0.385

Which result is listed for SLO2 #2?
droplet/nuclear area B-score, replicate 1: 0.0844

What did the screen give for SLO2 #3?
droplet/nuclear area B-score, replicate 1: 0.746

For SLO2 #4, what was measured?
droplet/nuclear area B-score, replicate 1: -0.372

With SLO2 #5, what was measured?
droplet/nuclear area B-score, replicate 1: 3.25

For SLO2 #6, what was measured?
droplet/nuclear area B-score, replicate 1: -1.31

What did the screen give for flip?
droplet/nuclear area B-score, replicate 1: -0.356

With Eig71Eb, how do the results read?
droplet/nuclear area B-score, replicate 1: 0.00547

How did the screen score Nadk2?
droplet/nuclear area B-score, replicate 1: 0.969

Which result is listed for DopEcR?
droplet/nuclear area B-score, replicate 1: -1.13

Which result is listed for CG5347?
droplet/nuclear area B-score, replicate 1: -0.0197

With CG8507, what does the deposit list?
droplet/nuclear area B-score, replicate 1: 0.0527

How did the screen score Gmppb?
droplet/nuclear area B-score, replicate 1: -2.67

With Hr96, how do the results read?
droplet/nuclear area B-score, replicate 1: 0.78
